Test [1] concerns the target Cyno AR (cynomolgus monkey). As to the kind of experiment: direct binding ELISA (table column BINDING: Cyno AR).
For a further test, the target named is Murine AR (mouse). Nature of the test: direct binding ELISA (table column BINDING: Murine AR).
For test [2], the target named is EGF. As to the kind of experiment: direct binding ELISA (table column BINDING: EGF).
The target of test [3] is HB-EGF. As to the kind of experiment: direct binding ELISA (table column BINDING: HB EGF).
The target of test [4] is HB-EGF. Nature of the test: ELISA (summary of FIG. 2).
Test [5] deals with EGF. As to the kind of experiment: ELISA (summary of FIG. 2).

No constants are given. Whether binding was seen depends on the method and setting. For part of these data: A result given as binding can be weak or reduced; the word gives no strength.

B1: PAR34 (murine anti-amphiregulin monoclonal antibody) (antibody, mouse IgG2b, V domains shown)
VH: EIQLQQSGPELVKPGASVKVSCKASGYAFTNYNMYWVKQSHGKSLEWIGYIDPYYGDPGYSQKFKGKATLTVDKSSSTAYMHLNSLTSEDSAVYYCARRGNFPYYFDYWGQGTTLTVSS
VL: DIKMTQSPSSMYASLGERVTITCKASQDINSYLSWFQQKPGKSPKTLIYRANRLVDGVPSRFSGSGSGQDYSLTISSLEYEDMGIYYCLQYDEFPYTFGGGTKLEIK
For the molecule B1, the binding entry in test [1] is listed as “binds”; with Murine AR (mouse), “binds”; with EGF [2], “no binding”; in the test with HB-EGF [3] it was “no binding”; in the test with HB-EGF [4], “no binding”; with EGF [5], “no binding”.

B2: PAR80 (murine anti-amphiregulin monoclonal antibody) (antibody, mouse IgG2a, V domains shown)
VH: EVQLQQSGAELVRSGASVKLSCTASGFNIKDYYIHWVKQRPEQGLEWIGCIDPENGDTEYAPNFQGRATMTADTSSNTAYLQLSSLTSEDTAVYYCYGGTITFAYWGQGTLVTVSA
VL: QAVVTQESALTTSPGETVTLTCRSSTGAVTTSNSANWVQEKPDHLFTGLIGGTINRVPGVPARFSGSLIGDKAALTITGAQTEDEAIYFCALWYSNHWVFGGGTKLTVLG
As for B2, the binding result in test [1] is “binds”; with Murine AR (mouse), “no binding”; with EGF [2], “no binding”; with HB-EGF [3] it was “no binding”; with HB-EGF [4], “no binding”; with EGF [5], “no binding”.

These data come from US20040210040A1 (PDL BIOPHARMA, published 2004).
